Measured values published in the supplement of paper PMC10849652.
The other results are listed elsewhere or left out.

Amino acid sequences for entries named in this document (tags omitted). A change or cut given only in a name is not applied to a line headed by its entry.
UniProt Q86VM9: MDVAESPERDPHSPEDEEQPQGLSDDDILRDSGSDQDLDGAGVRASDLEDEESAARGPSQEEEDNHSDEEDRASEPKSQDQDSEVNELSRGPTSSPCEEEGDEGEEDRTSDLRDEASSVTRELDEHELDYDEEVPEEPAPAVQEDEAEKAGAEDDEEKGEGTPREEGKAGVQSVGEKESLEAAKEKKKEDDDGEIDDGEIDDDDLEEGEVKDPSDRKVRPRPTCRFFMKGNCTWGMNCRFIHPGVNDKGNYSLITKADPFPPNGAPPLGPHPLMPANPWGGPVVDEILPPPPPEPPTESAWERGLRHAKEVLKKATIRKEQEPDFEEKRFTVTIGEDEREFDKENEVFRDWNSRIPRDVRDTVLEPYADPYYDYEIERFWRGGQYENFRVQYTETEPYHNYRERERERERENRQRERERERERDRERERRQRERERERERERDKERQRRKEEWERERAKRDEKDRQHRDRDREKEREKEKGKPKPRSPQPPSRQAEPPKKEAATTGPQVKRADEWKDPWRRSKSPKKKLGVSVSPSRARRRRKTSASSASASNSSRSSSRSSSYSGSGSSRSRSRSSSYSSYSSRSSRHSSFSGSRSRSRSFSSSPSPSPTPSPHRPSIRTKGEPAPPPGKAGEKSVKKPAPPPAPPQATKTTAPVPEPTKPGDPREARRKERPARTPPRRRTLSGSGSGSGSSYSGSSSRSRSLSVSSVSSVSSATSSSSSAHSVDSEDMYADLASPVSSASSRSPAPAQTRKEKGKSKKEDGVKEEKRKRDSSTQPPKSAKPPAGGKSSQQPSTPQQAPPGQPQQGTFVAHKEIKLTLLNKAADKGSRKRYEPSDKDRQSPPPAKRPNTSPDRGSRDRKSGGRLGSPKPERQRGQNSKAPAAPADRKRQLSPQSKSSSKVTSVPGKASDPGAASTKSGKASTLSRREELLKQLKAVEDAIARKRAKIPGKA
UniProt Q5VVQ6: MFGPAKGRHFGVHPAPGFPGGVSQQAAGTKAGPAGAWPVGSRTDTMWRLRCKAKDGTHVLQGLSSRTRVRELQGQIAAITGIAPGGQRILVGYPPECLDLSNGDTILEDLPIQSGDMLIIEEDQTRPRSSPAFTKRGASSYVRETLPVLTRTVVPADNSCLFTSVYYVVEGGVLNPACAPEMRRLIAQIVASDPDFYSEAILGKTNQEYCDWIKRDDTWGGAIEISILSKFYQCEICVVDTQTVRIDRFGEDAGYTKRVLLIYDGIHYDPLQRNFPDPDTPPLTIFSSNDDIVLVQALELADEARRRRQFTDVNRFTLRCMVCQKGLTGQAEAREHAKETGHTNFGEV
UniProt Q969M3: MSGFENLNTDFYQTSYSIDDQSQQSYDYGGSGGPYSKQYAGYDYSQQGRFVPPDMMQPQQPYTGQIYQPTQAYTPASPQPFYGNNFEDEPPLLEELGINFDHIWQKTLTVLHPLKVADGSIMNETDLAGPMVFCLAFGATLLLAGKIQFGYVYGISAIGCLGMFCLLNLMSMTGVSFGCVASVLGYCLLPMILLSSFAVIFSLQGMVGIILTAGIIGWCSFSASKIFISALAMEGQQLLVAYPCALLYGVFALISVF
UniProt Q96EC8: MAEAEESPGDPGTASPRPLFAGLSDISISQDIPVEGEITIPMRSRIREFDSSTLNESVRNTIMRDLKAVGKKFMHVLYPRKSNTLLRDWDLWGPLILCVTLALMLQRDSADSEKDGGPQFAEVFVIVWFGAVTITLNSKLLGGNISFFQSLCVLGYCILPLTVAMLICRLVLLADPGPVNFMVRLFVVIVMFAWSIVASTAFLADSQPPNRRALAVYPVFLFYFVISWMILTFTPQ
UniProt P49750: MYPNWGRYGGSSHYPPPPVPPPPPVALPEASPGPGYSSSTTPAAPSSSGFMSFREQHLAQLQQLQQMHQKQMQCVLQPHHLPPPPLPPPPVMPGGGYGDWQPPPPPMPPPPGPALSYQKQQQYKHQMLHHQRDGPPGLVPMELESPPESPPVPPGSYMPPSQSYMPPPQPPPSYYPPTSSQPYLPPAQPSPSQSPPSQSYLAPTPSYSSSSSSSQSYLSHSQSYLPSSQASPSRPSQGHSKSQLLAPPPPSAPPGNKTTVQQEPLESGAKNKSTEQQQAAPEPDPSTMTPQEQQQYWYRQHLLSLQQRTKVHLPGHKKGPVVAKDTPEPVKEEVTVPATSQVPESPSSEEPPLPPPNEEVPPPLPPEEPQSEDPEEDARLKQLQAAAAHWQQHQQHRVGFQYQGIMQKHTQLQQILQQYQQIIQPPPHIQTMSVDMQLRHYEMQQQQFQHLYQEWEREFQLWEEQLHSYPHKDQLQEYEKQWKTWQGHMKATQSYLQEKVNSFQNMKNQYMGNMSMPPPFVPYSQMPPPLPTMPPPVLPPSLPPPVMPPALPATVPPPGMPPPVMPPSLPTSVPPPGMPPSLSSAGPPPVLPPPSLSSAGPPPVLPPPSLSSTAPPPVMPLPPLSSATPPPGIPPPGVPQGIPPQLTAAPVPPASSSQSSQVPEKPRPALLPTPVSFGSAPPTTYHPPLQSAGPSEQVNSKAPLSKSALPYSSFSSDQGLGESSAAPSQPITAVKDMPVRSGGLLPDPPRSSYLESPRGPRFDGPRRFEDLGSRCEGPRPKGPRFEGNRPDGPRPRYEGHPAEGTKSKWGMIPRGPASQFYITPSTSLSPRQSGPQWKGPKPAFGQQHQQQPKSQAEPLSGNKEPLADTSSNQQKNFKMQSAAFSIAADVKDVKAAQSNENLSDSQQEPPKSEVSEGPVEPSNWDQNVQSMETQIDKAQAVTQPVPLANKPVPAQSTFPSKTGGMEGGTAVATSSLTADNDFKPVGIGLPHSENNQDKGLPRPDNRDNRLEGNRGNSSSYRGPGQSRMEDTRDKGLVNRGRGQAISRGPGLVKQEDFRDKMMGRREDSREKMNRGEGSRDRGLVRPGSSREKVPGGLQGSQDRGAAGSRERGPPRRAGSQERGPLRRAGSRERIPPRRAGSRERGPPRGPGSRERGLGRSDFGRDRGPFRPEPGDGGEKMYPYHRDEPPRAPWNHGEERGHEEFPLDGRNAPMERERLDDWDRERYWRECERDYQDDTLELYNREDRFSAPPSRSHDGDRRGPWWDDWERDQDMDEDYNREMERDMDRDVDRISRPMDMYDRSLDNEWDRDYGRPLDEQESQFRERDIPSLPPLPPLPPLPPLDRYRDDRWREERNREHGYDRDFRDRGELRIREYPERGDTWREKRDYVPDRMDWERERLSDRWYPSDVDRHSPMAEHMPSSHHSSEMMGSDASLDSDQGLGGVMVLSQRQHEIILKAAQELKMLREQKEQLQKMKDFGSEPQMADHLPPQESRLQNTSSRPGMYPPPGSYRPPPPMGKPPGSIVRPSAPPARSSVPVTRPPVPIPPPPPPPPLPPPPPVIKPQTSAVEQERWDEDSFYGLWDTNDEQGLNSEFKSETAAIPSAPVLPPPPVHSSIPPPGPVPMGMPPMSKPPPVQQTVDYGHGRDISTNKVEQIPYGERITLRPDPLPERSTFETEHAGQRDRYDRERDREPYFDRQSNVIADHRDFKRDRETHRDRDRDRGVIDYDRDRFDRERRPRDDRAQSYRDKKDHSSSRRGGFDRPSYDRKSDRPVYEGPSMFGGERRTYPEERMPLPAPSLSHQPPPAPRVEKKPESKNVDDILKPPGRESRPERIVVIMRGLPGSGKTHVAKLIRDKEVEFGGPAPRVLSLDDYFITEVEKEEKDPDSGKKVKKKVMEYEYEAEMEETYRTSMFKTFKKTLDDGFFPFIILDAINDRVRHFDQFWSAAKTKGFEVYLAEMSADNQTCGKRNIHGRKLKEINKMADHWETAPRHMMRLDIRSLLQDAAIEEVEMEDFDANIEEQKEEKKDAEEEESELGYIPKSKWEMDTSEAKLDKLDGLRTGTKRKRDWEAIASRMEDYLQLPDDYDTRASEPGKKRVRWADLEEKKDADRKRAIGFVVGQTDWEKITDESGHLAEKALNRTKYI
UniProt Q9C0B5: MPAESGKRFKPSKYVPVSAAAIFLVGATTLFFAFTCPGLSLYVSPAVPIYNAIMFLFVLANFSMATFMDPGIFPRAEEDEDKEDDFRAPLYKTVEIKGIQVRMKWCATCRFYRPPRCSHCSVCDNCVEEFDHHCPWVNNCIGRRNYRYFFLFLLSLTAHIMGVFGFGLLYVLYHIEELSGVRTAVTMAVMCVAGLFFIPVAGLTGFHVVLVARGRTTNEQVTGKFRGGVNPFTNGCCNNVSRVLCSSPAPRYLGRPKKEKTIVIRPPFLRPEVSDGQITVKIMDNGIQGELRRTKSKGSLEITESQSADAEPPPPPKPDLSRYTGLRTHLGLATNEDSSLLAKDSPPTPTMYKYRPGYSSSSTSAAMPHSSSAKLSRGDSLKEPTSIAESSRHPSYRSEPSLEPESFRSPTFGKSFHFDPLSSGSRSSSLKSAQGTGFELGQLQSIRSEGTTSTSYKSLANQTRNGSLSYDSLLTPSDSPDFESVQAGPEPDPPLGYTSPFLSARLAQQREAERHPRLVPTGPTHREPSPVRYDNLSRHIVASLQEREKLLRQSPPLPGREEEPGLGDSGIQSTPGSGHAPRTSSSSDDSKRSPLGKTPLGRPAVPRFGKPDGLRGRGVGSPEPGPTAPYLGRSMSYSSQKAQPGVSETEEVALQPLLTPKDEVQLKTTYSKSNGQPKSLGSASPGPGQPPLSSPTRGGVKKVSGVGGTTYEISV
UniProt O75362: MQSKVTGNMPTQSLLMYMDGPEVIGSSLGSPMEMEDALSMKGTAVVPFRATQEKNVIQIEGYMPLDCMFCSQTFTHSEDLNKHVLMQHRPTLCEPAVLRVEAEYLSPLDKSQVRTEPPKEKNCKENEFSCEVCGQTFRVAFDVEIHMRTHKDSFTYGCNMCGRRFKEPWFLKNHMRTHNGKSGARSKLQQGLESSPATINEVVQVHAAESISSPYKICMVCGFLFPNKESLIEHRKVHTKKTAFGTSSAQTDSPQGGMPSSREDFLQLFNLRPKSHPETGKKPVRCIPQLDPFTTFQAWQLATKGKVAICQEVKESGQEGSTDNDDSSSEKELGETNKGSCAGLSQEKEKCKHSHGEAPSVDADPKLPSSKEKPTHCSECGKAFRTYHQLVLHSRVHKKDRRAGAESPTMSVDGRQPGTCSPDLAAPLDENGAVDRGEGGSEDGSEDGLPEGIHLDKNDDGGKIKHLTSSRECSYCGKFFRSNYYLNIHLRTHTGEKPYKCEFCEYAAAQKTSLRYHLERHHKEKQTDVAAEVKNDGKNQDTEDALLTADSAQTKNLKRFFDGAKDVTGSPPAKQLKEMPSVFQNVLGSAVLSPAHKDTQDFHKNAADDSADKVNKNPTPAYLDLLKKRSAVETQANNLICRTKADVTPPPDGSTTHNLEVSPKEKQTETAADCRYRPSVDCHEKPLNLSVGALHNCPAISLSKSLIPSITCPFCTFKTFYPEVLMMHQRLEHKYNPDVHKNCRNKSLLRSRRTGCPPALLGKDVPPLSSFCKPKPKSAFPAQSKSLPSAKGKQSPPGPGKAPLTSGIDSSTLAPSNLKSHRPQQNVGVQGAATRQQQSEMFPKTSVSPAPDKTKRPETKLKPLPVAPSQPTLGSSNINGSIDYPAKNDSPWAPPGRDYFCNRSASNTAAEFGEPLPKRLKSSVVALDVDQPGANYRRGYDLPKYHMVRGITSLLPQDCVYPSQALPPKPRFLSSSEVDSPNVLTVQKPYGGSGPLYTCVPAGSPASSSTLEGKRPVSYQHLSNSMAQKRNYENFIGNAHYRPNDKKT
UniProt Q6FIF0: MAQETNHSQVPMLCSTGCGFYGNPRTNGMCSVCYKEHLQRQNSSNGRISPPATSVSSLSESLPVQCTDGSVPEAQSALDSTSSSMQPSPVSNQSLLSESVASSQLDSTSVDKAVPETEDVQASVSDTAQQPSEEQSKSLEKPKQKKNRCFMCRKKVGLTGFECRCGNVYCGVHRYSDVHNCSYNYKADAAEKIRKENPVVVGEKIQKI
UniProt Q8N5P1: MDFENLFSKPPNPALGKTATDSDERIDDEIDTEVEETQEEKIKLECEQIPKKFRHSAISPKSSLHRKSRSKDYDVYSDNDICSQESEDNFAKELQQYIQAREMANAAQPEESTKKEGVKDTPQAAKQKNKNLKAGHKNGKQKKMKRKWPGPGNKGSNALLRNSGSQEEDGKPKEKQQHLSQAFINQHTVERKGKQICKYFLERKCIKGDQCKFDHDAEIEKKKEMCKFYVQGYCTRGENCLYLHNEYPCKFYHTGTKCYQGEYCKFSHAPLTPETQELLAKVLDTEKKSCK
UniProt P16989, whole entry, looked up: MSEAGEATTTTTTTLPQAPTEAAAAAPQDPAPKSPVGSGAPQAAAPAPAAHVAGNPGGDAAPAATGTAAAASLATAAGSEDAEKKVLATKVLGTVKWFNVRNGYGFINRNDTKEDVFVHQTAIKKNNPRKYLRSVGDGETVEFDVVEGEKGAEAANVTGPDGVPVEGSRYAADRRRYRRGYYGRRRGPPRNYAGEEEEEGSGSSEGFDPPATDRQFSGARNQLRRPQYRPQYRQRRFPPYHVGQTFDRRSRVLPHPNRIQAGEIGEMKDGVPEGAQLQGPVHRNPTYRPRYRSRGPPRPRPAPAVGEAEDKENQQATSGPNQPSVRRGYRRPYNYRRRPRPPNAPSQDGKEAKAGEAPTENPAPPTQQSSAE

compound: CC1=CC=C(C=C1)SC2=C3C=C(SC3=CN=C2)C(=O)N; test: log2 fold change, soluble protein after heating vs DMSO (PISA); higher = thermal stabilisation; K562 cells, 10 uM, 30 min; active = over 0.2 and 3.5 SD of the protein, either way, in both replicates (recomputed)
In short: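 K562 cells at 2×10^6 cells/mL were treated for 30 min with 10 μM compound, and aliquots were heated for 3 min over 48°C-58°C before pooling. Extraction used PBS with 0.5% NP-40 at 4°C, and soluble protein was the supernatant after 21,000xg for 90 min, measured by TMTpro 16plex LC-MS/MS with channel sums equalised. Thermal stability values, relative to control samples and from duplicates, are log2 fold changes.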

| Target | log2 fold change |
| --- | --- |
| ZC3HC1 (UniProt Q86WB0) | inactive: 0.053 |
| ZC3H18 (UniProt Q86VM9) | inactive: -0.064 |
| YOD1 (UniProt Q5VVQ6) | inactive: 0.009 |
| YIPF5 isoform 3 (UniProt Q969M3) | inactive: 0.071 |
| YIPF6 (UniProt Q96EC8) | inactive: -0.018 |
| XPO5 (UniProt Q9HAV4) | inactive: 0.054 |
| YWHAZ (UniProt P63104) | inactive: 0.123 |
| XPO6 (UniProt Q96QU8) | inactive: 0.041 |
| YLPM1 (UniProt P49750) | inactive: -0.008 |
| ZDHHC5 (UniProt Q9C0B5) | inactive: -0.011 |
| XPNPEP1 isoform 3 (UniProt Q9NQW7) | inactive: 0.023 |
| ZNF217 (UniProt O75362) | inactive: -0.107 |
| ZFAND6 (UniProt Q6FIF0) | inactive: -0.01 |
| ZC3H8 (UniProt Q8N5P1) | inactive: -0.115 |
| YBX3 isoform 2 (UniProt P16989) | inactive: -0.347 |

Reformatted bar-delimited: part of the list above.
Target | log2 fold change
YIPF6 (UniProt Q96EC8) | inactive: -0.018
XPO5 (UniProt Q9HAV4) | inactive: 0.054
